Structures can show the parent of a compound that is named as a salt. Some of the results follow. Repeats in this data set agree poorly, so a single value says little.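 ReNCell VM, a human fetal ventral-midbrain neural progenitor line, was differentiated without mitogens. Blinded raters scored images stained for doublecortin (early neurons) or tyrosine hydroxylase (dopaminergic neurons) against untreated wells (0 = no change). Scores were averaged across repeats and both raters, and compounds averaging 2 or more were selected as hits for retesting.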
What follows are compounds tested on ReNCell VM (assay: dopaminergic neuron differentiation score (TH+ cell fraction vs untreated, manual image score) (score (0 to 3)); higher = more TH+ dopaminergic neuron differentiation). Settings: library: Spectrum; 2 uM; 4 weeks; BDNF 10 ng/ml + GDNF 10 ng/ml.
In the case of `C[C@]1(Cn2ccnn2)[C@H](C(=O)O)N2C(=O)C[C@H]2S1(=O)=O`, the “dopaminergic neuron differentiation score” value is reported as inactive: 0.
For `O=C(O)/C=C/C(=O)O`, the “dopaminergic neuron differentiation score” value was inactive: 0.
With `CO[C@H]1C[C@H](O[C@@H]2/C(C)=C/C[C@@H]3C[C@@H](C[C@]4(CC[C@H](C)[C@@H](C5CCCCC5)O4)O3)OC(=O)[C@@H]3C=C(C)/C(=N/O)[C@H]4OC/C(=C\C=C\[C@@H]2C)[C@]43O)O[C@@H](C)[C@@H]1O` the “dopaminergic neuron differentiation score” value was inactive: 0.
For `Cc1ccccc1N1C(=O)c2cc(S(N)(=O)=O)c(Cl)cc2NC1C` (centres undefined), the “dopaminergic neuron differentiation score” value was inactive: 0.
With `CCCOc1ccc2[nH]c(NC(=O)OC)nc2c1` the “dopaminergic neuron differentiation score” value was inactive: 0.
`CO/N=C1\CN(c2nc3c(cc2F)c(=O)c(C(=O)O)cn3C2CC2)CC1CN` (centres undefined) was tested, and the “dopaminergic neuron differentiation score” value was inactive: 0.
With `CN1CCN(CC(=O)N2c3ccccc3C(=O)Nc3cccnc32)CC1` the “dopaminergic neuron differentiation score” value was inactive: 0.
With `O=c1c(O)c(-c2ccc(O)cc2O)oc2cc(O)cc(O)c12` the “dopaminergic neuron differentiation score” value was inactive: 0.
In the case of `Cc1nc(C)c(Cl)c(O)c1Cl`, the “dopaminergic neuron differentiation score” value is reported as inactive: 0.
With `COc1ccc([C@@H]2CC(=O)c3c(O)cc(O)cc3O2)cc1O` the “dopaminergic neuron differentiation score” value was inactive: 0.
`CCOC(=O)CC(=O)N1CCSC1COc1ccccc1OC` (centres undefined) was tested, and the “dopaminergic neuron differentiation score” value was inactive: 1.

Same assay, conditions: library: Tocriscreen; 2 uM; 4 weeks; BDNF 10 ng/ml + GDNF 10 ng/ml
For `CC#CCOC(=O)C1=CCCN(C)C1` [Arecaidine but-2-ynyl ester tosylate], the “dopaminergic neuron differentiation score” value was inactive: 0.
For `O=c1nc2ccccc2c2n1CC(CN1CCN(c3ccccc3)CC1)N2` (centres undefined), the “dopaminergic neuron differentiation score” value was inactive: 0.
In the case of `CC(C)NCC(O)COc1ccccc1-n1cccc1` (centres undefined) [Isamoltane hemifumarate], the “dopaminergic neuron differentiation score” value is reported as inactive: 0.

Reference: the supplement of paper PMC4635364
